One experiment concerns the target Human mGlu2 (Homo sapiens, UniProt Q14416). In words: mGlu receptor in vitro assay, human mGlu2. The settings on record: read-out: Human mGlu2 AVG EC50.
The next experiment concerns the target Human mGlu3 (Homo sapiens, UniProt Q14832). The experiment can be described thus: mGlu receptor in vitro assay, human mGlu3. Conditions: read-out: Human mGlu3 AVG EC50.
The target in another experiment is Rat mGlu2 (Rattus norvegicus, UniProt P31421). The experiment can be described thus: mGlu receptor in vitro assay, thallium flux through GIRK channels, rat mGlu2. The settings on record: read-out: Rat mGlu2 AVG EC50; PAM potency with EC20 glutamate. How it is done: (§1) Human Embryonic Kidney (HEK-293) cell lines co-expressing rat mGlu receptors 2, 3, 4, 6, 7 or 8 and G protein-coupled inwardly-rectifying potassium (GIRK) channels were grown in Growth Media containing 45% DMEM, 45% F-12, 10% FBS, 20 mM HEPES, 2 mM L-glutamine, antibiotic/antimycotic, non-essential amino acids, 700 μg/mL G418, and 0.6 μg/ml puromycin at 37° C. in the presence of 5% CO2. Cells expressing rat mGlu1 and mGlu5 receptor were cultured as described in Hemstapat et al (Mol. Pharmacol. 2006, 70, 616-626). All cell culture reagents were purchased from Invitrogen Corp. (Carlsbad, CA) unless otherwise noted. […]
(§2) Compound activity at the group II (mGlu2 and mGlu3) and group III (mGlu4, mGlu6, mGlu7, and mGlu8) was assessed using thallium flux through GIRK channels, a method that has been described in detail. […] Cell plates and compound plates were loaded onto a kinetic imaging plate reader (FDSS 6000 or 7000; Hamamatsu Corporation, Bridgewater, NJ). Appropriate baseline readings were taken (10 images at 1 Hz; excitation, 470±20 nm; emission, 540±30 nm) and test compounds were added in a 20 μL volume and incubated for approximately 2.5 min before the addition of 10 μL of thallium buffer with or without agonist. […] Data were analyzed using Excel (Microsoft Corp, Redmond, WA). […] Potencies were calculated from fits using a four-point parameter logistic equation. […]

Amino acid sequences for entries named in this document (tags omitted). Residues count along the entry.
UniProt Q14416, 19-872 limits assumed: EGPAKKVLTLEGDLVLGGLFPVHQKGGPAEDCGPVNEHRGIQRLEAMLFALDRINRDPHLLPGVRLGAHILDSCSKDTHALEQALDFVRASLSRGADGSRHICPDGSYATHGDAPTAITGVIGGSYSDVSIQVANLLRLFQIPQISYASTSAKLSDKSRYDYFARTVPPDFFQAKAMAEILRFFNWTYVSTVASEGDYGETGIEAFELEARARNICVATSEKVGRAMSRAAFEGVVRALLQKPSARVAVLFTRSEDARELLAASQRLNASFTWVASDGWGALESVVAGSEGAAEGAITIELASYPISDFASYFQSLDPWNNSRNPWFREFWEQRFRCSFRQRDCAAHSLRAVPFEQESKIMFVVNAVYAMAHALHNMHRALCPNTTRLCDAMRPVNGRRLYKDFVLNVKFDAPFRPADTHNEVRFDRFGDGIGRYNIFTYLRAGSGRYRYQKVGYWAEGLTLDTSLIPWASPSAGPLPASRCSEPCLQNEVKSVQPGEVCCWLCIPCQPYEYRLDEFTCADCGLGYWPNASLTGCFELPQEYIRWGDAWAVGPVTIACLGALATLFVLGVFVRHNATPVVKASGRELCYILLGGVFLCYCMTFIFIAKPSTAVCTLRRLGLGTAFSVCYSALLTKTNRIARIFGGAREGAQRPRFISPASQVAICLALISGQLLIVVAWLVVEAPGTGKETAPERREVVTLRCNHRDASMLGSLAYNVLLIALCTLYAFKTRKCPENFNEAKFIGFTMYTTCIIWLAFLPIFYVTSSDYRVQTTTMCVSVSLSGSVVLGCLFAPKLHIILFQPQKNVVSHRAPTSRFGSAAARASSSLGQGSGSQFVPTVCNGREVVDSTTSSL
UniProt Q14832, 23-879 limits assumed: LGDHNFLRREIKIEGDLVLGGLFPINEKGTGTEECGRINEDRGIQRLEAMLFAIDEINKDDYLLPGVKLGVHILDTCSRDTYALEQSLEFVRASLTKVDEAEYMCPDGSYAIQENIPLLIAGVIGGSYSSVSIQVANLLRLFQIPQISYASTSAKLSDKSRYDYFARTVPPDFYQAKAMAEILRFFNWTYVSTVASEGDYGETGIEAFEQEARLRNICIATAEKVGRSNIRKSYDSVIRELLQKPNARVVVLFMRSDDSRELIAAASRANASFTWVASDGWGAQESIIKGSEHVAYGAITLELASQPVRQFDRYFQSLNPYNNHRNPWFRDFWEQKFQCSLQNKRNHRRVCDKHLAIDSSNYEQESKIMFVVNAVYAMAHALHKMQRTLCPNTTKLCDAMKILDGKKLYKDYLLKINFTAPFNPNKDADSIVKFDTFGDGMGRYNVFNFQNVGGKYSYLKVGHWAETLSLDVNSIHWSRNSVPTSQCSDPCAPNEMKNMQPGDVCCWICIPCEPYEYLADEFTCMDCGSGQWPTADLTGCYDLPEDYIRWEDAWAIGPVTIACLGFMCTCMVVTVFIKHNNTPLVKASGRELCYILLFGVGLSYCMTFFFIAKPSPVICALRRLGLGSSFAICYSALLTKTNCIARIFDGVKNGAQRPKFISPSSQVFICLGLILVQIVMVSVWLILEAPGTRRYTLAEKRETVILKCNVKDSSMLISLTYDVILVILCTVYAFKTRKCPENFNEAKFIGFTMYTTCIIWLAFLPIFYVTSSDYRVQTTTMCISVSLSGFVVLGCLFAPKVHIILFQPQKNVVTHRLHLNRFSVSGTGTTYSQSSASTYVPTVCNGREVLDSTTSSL
UniProt P31421, 19-872 limits assumed: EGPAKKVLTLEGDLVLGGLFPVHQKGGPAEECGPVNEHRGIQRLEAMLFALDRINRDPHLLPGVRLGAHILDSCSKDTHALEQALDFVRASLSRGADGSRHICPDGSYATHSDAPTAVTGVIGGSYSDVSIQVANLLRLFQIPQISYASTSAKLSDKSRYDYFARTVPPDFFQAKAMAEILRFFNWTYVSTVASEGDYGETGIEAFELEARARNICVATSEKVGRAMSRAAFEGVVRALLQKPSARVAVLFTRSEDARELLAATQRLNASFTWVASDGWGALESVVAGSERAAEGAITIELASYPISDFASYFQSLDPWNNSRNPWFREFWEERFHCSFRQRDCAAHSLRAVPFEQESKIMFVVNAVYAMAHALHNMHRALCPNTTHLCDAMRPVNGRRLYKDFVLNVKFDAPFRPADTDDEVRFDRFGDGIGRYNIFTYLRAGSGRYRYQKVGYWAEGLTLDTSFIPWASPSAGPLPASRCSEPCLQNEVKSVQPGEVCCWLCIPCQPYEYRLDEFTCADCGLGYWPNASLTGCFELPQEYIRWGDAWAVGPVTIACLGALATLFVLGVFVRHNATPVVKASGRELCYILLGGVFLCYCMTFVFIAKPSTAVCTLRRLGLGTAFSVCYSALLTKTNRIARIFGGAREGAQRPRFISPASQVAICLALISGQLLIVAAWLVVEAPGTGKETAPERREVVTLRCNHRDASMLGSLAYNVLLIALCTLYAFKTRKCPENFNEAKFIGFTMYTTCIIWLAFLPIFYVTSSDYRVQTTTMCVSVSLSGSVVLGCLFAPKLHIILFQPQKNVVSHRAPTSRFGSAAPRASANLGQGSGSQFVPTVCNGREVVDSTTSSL
UniProt P31422, 23-879 limits assumed: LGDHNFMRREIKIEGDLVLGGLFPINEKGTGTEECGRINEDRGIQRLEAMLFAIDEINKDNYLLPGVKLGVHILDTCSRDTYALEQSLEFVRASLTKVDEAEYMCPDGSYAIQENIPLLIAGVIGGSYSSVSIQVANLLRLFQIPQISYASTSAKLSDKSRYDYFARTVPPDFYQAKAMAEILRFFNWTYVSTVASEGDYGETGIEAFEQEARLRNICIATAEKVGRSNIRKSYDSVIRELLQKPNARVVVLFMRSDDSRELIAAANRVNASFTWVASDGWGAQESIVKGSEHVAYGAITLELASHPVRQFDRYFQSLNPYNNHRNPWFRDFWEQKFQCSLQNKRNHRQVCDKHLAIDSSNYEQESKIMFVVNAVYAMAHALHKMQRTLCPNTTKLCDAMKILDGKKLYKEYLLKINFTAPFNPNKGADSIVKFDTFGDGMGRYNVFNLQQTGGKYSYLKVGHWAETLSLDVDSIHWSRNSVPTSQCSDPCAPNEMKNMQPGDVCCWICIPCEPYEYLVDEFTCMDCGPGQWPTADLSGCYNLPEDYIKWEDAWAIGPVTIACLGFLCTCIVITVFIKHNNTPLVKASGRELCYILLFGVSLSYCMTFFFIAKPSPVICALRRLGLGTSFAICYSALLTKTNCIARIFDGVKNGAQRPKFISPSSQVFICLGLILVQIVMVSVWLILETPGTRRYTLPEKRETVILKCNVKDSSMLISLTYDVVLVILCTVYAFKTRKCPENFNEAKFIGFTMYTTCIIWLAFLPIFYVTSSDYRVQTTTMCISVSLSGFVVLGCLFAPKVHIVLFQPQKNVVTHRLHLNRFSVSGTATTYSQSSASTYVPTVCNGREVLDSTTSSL

The next experiment deals with Rat mGlu3 (Rattus norvegicus, UniProt P31422). In words: mGlu receptor in vitro assay (thallium flux through GIRK channels / calcium assay), rat mGlu3. Conditions: read-out: Rat mGlu3 AVG EC50; PAM potency with EC20 glutamate. How it is done: as §1, §2

Structures were worked out from names or drawings and are uncertain.

We go through two compounds from patent US20250179000A1 (Sanford Burnham Prebys Medical Discovery Institute, priority 2021, published 2025).

In general, EC50 refers to the concentration at which the effect is half-maximal. As for `COc1ccc(C(=O)O)cc1OCCCCOc1ccc2c(c1C)OC(C)(C)CC2=O`, the EC50 at Human mGlu2 was more than 10 µM; on Human mGlu3 it was more than 30 µM.
In the case of `COc1ccc(C(=O)O)cc1OCOc1ccc(C(=O)CC(C)(C)C)c(O)c1C`, the EC50 was 0.348 µM at Rat mGlu2, more than 30 µM at Rat mGlu3, 0.179 µM on Human mGlu2 and more than 30 µM at Human mGlu3.
